Measurements taken from PubChem BioAssay AID2685 (National Center for Advancing Translational Sciences (NCATS), 2010).
Some of the results follow. These are further read-outs of the screen, such as a control signal, another cell line or another target. No call is given for them. Compounds called inactive in the main read-out are mostly missing here. The note in brackets gives the kind of curve behind each potency; many fits are weak.

Experiment: qHTS Assay for Lipid Storage Modulators in Drosophila S3 Cells;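 as to cell number change: cells counted by Cell Tracker Red CMTPX staining in the red channel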
Conditions: BODIPY lipid droplet fluorescence, 18-24 h; for cell number change: measured here: cell count max response, cells fed with added oleic acid
In short: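 Laser-scanning cytometry quantifies lipid droplet accumulation (500–530 nm total intensity; droplet/cell object ratio) in oleic acid-fed (400 uM added) Drosophila S3 cells treated with a concentration series. 20 uM Triacsin C defined 100% inhibition.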

[1] = measured here: cell number channel AC50, cells fed with added oleic acid
[2] = measured here: lipid fluorescence (Fed channel) AC50, cells fed with added oleic acid

## Oc1[nH]c2ccccc2c1N=Nc1nc(Nc2ccccc2)nc(N2CCOCC2)n1
  cell number change: -41.5%
[1]
  AC50: 1.16 µM [falling, full curve]
[2]
  AC50: 1.3 µM [falling, full curve]

## Cc1ccc(CO/N=C/c2c(O)cc(C)oc2=O)cc1
  cell number change: -4.3%
[2]
  AC50: 0.116 µM [rising, single point]

## CCOc1ccc(C(=O)COC(=O)CN2C(=O)NC3(CCCCC3C)C2=O)cc1 (stereo not given)
  cell number change: 6.81%
[1]
  AC50: 0.0517 µM [rising, full curve, poor fit]
[2]
  AC50: 2.06 µM [rising, partial curve]

## CCOc1ccc(N(CC(=O)N/N=C/c2cc(Br)c(C)o2)S(C)(=O)=O)cc1
  cell number change: -8.01%
[2]
  AC50: 0.651 µM [falling, full curve, poor fit]

## CCOC(=O)c1nnn(-c2ccccc2C#N)c1C
  cell number change: -7.52%
[1]
  AC50: 0.731 µM [rising, single point]
[2]
  AC50: 0.731 µM [rising, single point]

## CCCCOc1cc(=O)[nH]c(=O)[nH]1
  cell number change: -32.7%
[1]
  AC50: 0.146 µM [falling, full curve]
[2]
  AC50: 1.16 µM [falling, full curve]

## CC(=O)N/C(=C/c1ccc(OS(=O)(=O)c2ccc(C)cc2)cc1)C(=O)Nc1ccc(C(=O)O)cc1
  cell number change: -5.38%
[2]
  AC50: 0.184 µM [rising, full curve, poor fit]

## Cc1onc(-c2ccccc2)c1C(=O)OCC(=O)Nc1ccccc1
  cell number change: 25%
[1]
  AC50: 2.31 µM [rising, full curve, poor fit]

## NS(=O)(=O)c1ccc(NC(=S)N2CCc3ccccc32)cc1
  cell number change: -13.8%
[2]
  AC50: 14.6 µM [rising, single point]

## CCN(CC)S(=O)(=O)c1cc(NC(=O)C2=COCCO2)ccc1Cl
  cell number change: -20.4%
[2]
  AC50: 6.51 µM [rising, single point]

## COc1cc(NC(=O)CSc2nnnn2Cc2ccccc2)cc(OC)c1
  cell number change: 28.8%
[2]
  AC50: 1.46 µM [rising, full curve, poor fit]

## CC(=O)N1CCN=C1SCc1c(F)cccc1Cl
  cell number change: 21.2%
[2]
  AC50: 29.1 µM [rising, single point]

## O=C1C=C(c2cc(F)ccc2F)C[C@@H](c2ccc(Cl)cc2)C1
  cell number change: 6.94%
[2]
  AC50: 6.51 µM [falling, single point]

## COc1cccc(N2CCN(C(=S)Nc3ccc(F)cc3)CC2)c1
  cell number change: 36.5%
[1]
  AC50: 20.6 µM [rising, single point]

## O=C(Nc1ccc(O)cc1C(=O)O)c1cccc(Br)c1
  cell number change: 31.7%
[1]
  AC50: 20.6 µM [rising, single point]

## COc1cccc(NC(=O)CN2CCN(c3nc(-c4cccc(OC)c4)cs3)CC2)c1
  cell number change: -17.9%
[2]
  AC50: 29.1 µM [falling, single point]

## CC(C)c1ccc(C(=O)NCCCN2CCN(CCCNC(=O)c3ccc(C(C)C)cc3)CC2)cc1
  cell number change: -7.98%
[2]
  AC50: 0.00517 µM [falling, full curve, poor fit]

## CCNc1nc(NCC)n2c(SCC(=O)Nc3ccccc3F)nnc2n1
  cell number change: 30.6%
[1]
  AC50: 0.082 µM [rising, full curve, poor fit]
[2]
  AC50: 0.103 µM [rising, full curve, poor fit]

## CN(Cc1c(C(=O)N/N=C/c2ccccc2)nnn1-c1nonc1N)C1CCCCC1
  cell number change: 22.5%

## CCCCCOc1ccc(C(=O)NCC2(c3ccccc3)CCOCC2)cc1
  cell number change: 13.7%

## COc1cc(NC(=O)CCc2nnc3ccc(N4CCC5(CC4)OCCO5)nn23)cc(OC)c1
  cell number change: -34.1%
[1]
  AC50: 0.366 µM [falling, partial curve]
[2]
  AC50: 29.1 µM [falling, single point]

## O=C(Cc1ccc(Cl)cc1)NC1CC1
  cell number change: -44.3%
[2]
  AC50: 29.1 µM [falling, single point]

## CC(=O)Nc1ccccc1C(=O)C(=O)Nc1ccc(C)c(C)c1
  cell number change: -6.97%
[2]
  AC50: 29.1 µM [rising, single point]

## COc1cc(CNCCO)ccc1OC1CCCC1
  cell number change: -11.9%
[2]
  AC50: 29.1 µM [falling, single point]

## CCOC(=O)Cc1csc(NC(=O)CN2CCN(CC)CC2)n1
  cell number change: -19.2%
[2]
  AC50: 29.1 µM [rising, single point]

## CCC(=O)NC(Nc1cc(C)ccn1)(C(F)(F)F)C(F)(F)F
  cell number change: -46%
[1]
  AC50: 2.59 µM [falling, partial curve]
[2]
  AC50: 6.51 µM [rising, single point]

## O=C(NCCCc1ccccc1)c1ccccc1O
  cell number change: -31.5%
[1]
  AC50: 29.1 µM [falling, single point]
[2]
  AC50: 29.1 µM [falling, single point]

## COC(c1ccccc1)c1nnc(CCC(=O)NC2C3CC4CC(C3)CC2C4)o1 (stereo not given)
  cell number change: -64.3%
[1]
  AC50: 5.8 µM [falling, full curve]
[2]
  AC50: 2.59 µM [falling, full curve]

## Cc1ccc(NC(=O)CCN2CC(C)OC(C)C2)cc1C (stereo not given)
[2]
  AC50: 0.651 µM [falling, single point]

## Cc1ccc2nsnc2c1N(S(C)(=O)=O)S(C)(=O)=O
  cell number change: -4.67%
[2]
  AC50: 0.411 µM [falling, full curve, poor fit]

## CCOc1ccc2oc(C(=O)OCC(=O)NCC3CCCO3)c(C)c2c1 (stereo not given)
  cell number change: 148%
[1]
  AC50: 20.6 µM [rising, single point]

## Cc1sc2ncnc(SCC(=O)c3cccs3)c2c1C
  cell number change: -21.6%
[2]
  AC50: 3.26 µM [rising, single point]

## Cc1ccc(S(=O)(=O)Cc2cn3cccnc3n2)cc1
  cell number change: -2.58%
[2]
  AC50: 6.51 µM [rising, single point]

## O=C(NC(=S)Nc1ccc(Br)cn1)c1cncc(Br)c1
  cell number change: 24.8%
[2]
  AC50: 4.61 µM [rising, full curve, poor fit]

## Cc1[nH]c2ccccc2c1/C=N/NC(=O)Cc1cccs1
  cell number change: 11.2%
[2]
  AC50: 0.92 µM [rising, full curve, poor fit]

## C#CCn1ccc(O)c(Cc2c(F)cccc2Cl)c1=O
  cell number change: -15.9%
[2]
  AC50: 29.1 µM [falling, single point]

## Cc1ccc(NC(=O)Nc2nnc(-c3ccccc3)o2)cc1
  cell number change: 132%
[1]
  AC50: 29.1 µM [rising, partial curve, poor fit]
